Laboratory results as given in PMC7985479.
No constants are given. Whether binding was seen depends on the method and setting. Some results given as binding are weak or reduced against the parent protein; the word gives no strength.

Protein sequences, listed by entry. Tags and fused reporters are not part of them. Lines headed by an entry give the natural chain unless they say otherwise; changes in a name come on top. Residues count along the entry.
UniProt P54761, residues 16-987: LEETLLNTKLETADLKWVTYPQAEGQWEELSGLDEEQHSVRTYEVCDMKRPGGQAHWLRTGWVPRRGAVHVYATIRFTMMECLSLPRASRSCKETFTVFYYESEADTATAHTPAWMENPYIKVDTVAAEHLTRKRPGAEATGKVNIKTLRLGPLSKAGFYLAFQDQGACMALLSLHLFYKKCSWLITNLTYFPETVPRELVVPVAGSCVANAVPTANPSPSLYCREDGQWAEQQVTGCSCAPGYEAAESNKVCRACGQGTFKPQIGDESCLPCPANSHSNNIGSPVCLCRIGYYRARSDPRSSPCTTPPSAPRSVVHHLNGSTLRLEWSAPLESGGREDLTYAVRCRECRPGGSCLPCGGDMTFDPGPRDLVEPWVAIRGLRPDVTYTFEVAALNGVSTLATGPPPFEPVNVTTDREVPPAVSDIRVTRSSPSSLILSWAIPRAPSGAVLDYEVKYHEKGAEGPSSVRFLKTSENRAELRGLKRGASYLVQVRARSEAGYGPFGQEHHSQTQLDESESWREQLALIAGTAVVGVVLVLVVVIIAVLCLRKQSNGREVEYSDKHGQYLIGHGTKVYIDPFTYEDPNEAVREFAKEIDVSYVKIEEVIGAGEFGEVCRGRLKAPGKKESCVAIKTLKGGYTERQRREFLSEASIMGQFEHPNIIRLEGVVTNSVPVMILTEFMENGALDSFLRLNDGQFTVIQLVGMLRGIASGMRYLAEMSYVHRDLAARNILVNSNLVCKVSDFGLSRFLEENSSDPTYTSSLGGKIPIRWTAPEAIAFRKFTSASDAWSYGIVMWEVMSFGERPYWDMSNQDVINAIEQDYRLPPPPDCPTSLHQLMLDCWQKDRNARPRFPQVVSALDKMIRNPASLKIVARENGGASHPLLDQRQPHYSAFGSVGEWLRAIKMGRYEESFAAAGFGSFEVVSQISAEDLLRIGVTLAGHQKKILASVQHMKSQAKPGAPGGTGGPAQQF
UniProt P54760, residues 16-987: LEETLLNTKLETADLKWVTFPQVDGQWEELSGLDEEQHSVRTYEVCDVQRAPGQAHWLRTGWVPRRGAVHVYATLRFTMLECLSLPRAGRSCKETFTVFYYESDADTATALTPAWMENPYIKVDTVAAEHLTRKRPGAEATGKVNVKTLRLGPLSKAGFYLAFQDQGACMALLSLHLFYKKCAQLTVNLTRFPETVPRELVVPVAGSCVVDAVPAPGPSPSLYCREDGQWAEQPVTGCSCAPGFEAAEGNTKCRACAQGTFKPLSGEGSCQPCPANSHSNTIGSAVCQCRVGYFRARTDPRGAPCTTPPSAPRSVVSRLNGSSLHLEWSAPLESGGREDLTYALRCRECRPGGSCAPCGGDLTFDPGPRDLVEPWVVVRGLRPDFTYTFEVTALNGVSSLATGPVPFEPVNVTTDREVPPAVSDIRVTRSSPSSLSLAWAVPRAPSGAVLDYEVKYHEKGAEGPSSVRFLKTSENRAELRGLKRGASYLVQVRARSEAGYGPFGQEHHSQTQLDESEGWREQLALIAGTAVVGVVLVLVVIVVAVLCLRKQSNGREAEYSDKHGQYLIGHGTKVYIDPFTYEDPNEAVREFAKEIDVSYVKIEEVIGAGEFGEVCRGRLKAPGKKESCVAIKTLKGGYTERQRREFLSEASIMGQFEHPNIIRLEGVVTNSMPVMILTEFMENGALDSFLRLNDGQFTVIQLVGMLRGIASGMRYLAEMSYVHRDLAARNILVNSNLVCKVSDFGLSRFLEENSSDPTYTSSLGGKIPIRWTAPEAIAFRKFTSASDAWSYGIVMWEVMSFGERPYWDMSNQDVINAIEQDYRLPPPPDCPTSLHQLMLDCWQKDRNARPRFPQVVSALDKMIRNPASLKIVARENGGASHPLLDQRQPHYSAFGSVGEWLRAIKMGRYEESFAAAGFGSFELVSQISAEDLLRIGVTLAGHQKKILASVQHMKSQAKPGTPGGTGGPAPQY
UniProt P52799, residues 28-229: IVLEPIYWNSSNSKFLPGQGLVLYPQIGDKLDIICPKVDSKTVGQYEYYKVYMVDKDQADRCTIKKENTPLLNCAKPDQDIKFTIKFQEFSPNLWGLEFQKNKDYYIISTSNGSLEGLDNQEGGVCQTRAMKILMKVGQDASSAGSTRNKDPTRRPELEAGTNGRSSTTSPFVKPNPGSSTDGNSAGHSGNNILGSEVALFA

How the values were obtained:
[1] = biological target: murine EPHB4 on 293-murineEPHB4-GFP cells (murine) (UniProt P54761); assay: flow cytometry on cells; 293-GFP, 293-humanEPHB4-GFP and 293-murineEPHB4-GFP cells incubated with 2 ug/mL recombinant human Ephrin B2-Fc for 30 min on ice, washed twice with D-PBS, stained with APC-conjugated anti IgG-Fc antibody for 30 min on ice; only the binder purified
[2] = biological target: human EPHB4 (Ephrin type-B receptor 4) on 293-humanEPHB4-GFP cells (human) (UniProt P54760); assay: as above

binding [1]: binds | binding [2]: binds
Substance: recombinant human Ephrin B2-Fc chimera protein (from UniProt P52799 28-229) (Fc fusion)
